Results published in patent publication US8828928B2 (President and Fellows of Harvard College, priority 2011, dated 2014).
Non-standard residues stand in square brackets, D forms with d.

Assay: general procedure: Fmoc solid-phase peptide synthesis; Rink Amide AM resin (200 mg, loading 0.4-0.8 mmol/g); scaled up: Rink Amide AM resin (5 g); HCTU/DIPEA
Settings: whole synthesis, scale of the general procedured up 5 g resin

| Substance | final HPLC purity (280 nm, scale of the general procedure 200 mg resin) | final HPLC purity (A280, scale of the general procedure 200 mg resin) [%] |
| --- | --- | --- |
| H-KKKW[dL]W[dL]W[dL]W-NH2 (SMILES CC(C)C[C@@H](NC(=O)[C@H](Cc1c[nH]c2ccccc12)NC(=O)[C@@H](CC(C)C)NC(=O)[C@H](Cc1c[nH]c2ccccc12)NC(=O)[C@@H](CC(C)C)NC(=O)[C@H](Cc1c[nH]c2ccccc12)NC(=O)[C@H](CCCCN)NC(=O)[C@H](CCCCN)NC(=O)[C@@H](N)CCCCN)C(=O)N[C@@H](Cc1c[nH]c2ccccc12)C(N)=O) | exceeds 95% |  |
| Ac-K(Ac)K(Ac)K(Ac)W[dL]W[dL]W[dL]W-NH2 (SMILES CC(=O)NCCCC[C@H](NC(C)=O)C(=O)N[C@@H](CCCCNC(C)=O)C(=O)N[C@@H](CCCCNC(C)=O)C(=O)N[C@@H](Cc1c[nH]c2ccccc12)C(=O)N[C@H](CC(C)C)C(=O)N[C@@H](Cc1c[nH]c2ccccc12)C(=O)N[C@H](CC(C)C)C(=O)N[C@@H](Cc1c[nH]c2ccccc12)C(=O)N[C@H](CC(C)C)C(=O)N[C@@H](Cc1c[nH]c2ccccc12)C(N)=O) |  | >95 |
